Experimental data: PubChem BioAssay AID720505 (Drosophila RNAi Screening Center, 2013)
In all, the deposit lists about 20,000 reagents; below is a random part of those that have a named target and a result. Over the whole deposit, about 2,100 (10%) are marked active. 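Raw plate signals without normalisation; calls rest on control-based scores that were not deposited; replicate 2 separates called from uncalled poorly.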 The record does not give: the amount of reagent, the time to read-out.

Test: 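Knock-downs that reduce calcium influx once internal stores are emptied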 (primary screen)
Cell system: Drosophila S2R+ cells
Knock-down reagent: long dsRNA against Drosophila genes
Conditions: thapsigargin (2 µM) in calcium-free buffer to empty internal stores, then 2 mM calcium added back
Detection: 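Fluo-4 signal in 384-well plates read on a FLIPR after thapsigargin (2 µM, calcium-free) store depletion and 2 mM calcium add-back; unnormalised mean endpoint per well; screen run twice, selected wells retested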
Reading the numbers: calcium signal and retest calcium signal: higher = more calcium entry after store depletion
Hit rule: 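Knock-downs counted as hits when calcium entry dropped relative to STIM1 positive and Rho1 negative controls present on each plate; roughly 1500 genes called, with reductions of differing size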
Meaning of the calls: active = called as lowering calcium entry; inactive = not called

| gene | amplicon | calcium signal, replicate 1 | calcium signal, replicate 2 | retest calcium signal, replicate 1 | retest calcium signal, replicate 2 | Call |
| --- | --- | --- | --- | --- | --- | --- |
| CG16903 | DRSC18561 | 68.3 | 97.6 | – | – | active |
| CG2246 | DRSC15433 | 86 | 165 | – | – | inactive |
| NC2alpha | DRSC04059 | 79 | 89.3 | – | – | inactive |
| CG13947 | DRSC00365 | 148 | 156 | – | – | inactive |
| CG3546 | DRSC18308 | 208 | 105 | – | – | inactive |
| CG30289 | DRSC03870 | 88.1 | 9391 | – | – | inactive |
| CG14269 | DRSC17912 | 74.9 | 89.6 | – | – | inactive |
| tsh | DRSC03740 | 99.1 | 116 | – | – | inactive |
| CG8726 | DRSC07250 | 133 | 112 | – | – | inactive |
| CG5877 | DRSC19963 | 145 | 105 | – | – | inactive |
| Apl | DRSC10350 | 88.3 | 152 | – | – | inactive |
| 5-HT7 | DRSC12635 | 121 | 141 | – | – | inactive |
| wrd | DRSC16337 | 193 | 171 | – | – | inactive |
| wrd | DRSC16344 | 194 | 198 | – | – | inactive |
| wrd | DRSC23189 | 115 | 147 | – | – | inactive |
| karr | DRSC20681 | 227 | 79.3 | – | – | inactive |
| CG14406 | DRSC19592 | 96.9 | 145 | – | – | inactive |
| mnd | DRSC11370 | 80.9 | 179 | – | – | inactive |
| nrm | DRSC11897 | 105 | 180 | – | – | inactive |
| Mcad | DRSC09871 | 54 | 70.7 | – | – | active |
| Nup50 | DRSC06827 | 194 | 145 | – | – | inactive |
| CG14069 | DRSC02372 | 169 | 112 | – | – | inactive |
| Kdm4B | DRSC06862 | 162 | 117 | – | – | inactive |
| Spn42De | DRSC05011 | 93.7 | 108 | – | – | inactive |
| mRpS28 | DRSC06939 | 172 | 152 | – | – | inactive |
| MetRS-m | DRSC16443 | 145 | 130 | – | – | inactive |
| MetRS-m | DRSC16515 | 83.8 | 86.8 | – | – | inactive |
| Tsp42Eg | DRSC06112 | 152 | 137 | – | – | inactive |
| MED26 | DRSC17126 | – | – | – | – | active |
| MED26 | DRSC17147 | 93.9 | 139 | – | – | inactive |
| MED26 | DRSC17148 | 118 | 82.9 | – | – | inactive |
| Nep7 | DRSC15830 | 107 | 120 | – | – | inactive |
| Map205 | DRSC16732 | 80.6 | 127 | – | – | inactive |
| parvin | DRSC19468 | 51.8 | 93.2 | – | – | active |
| CG43234 (retired record) | DRSC01786 | 111 | 7158 | – | – | inactive |
| Tsp97E | DRSC16019 | 118 | 121 | – | – | inactive |
| borr | DRSC02749 | 84 | 86.9 | – | – | inactive |
| Cyp4d20 | DRSC08654 | 121 | 81 | – | – | inactive |
| CG13004 | DRSC19523 | 70.8 | 114 | – | – | active |
| CG11892 | DRSC14428 | 88 | 86 | – | – | inactive |
| CG16854 | DRSC02536 | 170 | 144 | – | – | inactive |
| Mid1 | DRSC04230 | 151 | 208 | 140 | 119 | inactive |
| Mid1 | DRSC04231 | 104 | 188 | – | – | inactive |
| Mid1 | DRSC04308 | 102 | 179 | – | – | inactive |
| Mid1 | DRSC22773 | 142 | 236 | – | – | inactive |
| Mid1 | DRSC22803 | 98.1 | 122 | – | – | inactive |
| CG12914 | DRSC06229 | 97.3 | 106 | – | – | inactive |
| CG3223 | DRSC15468 | 122 | 228 | – | – | inactive |
| l(2)SH0834 | DRSC02854 | 199 | 129 | – | – | inactive |
| CG13654 | DRSC14654 | 233 | 103 | – | – | inactive |
| CG7744 | DRSC07036 | 162 | 131 | – | – | inactive |
| orion | DRSC18213 | 197 | 102 | – | – | inactive |
| orion | DRSC18214 | 172 | 136 | – | – | inactive |
| CG4887 | DRSC00670 | 191 | 102 | – | – | inactive |
| CG4887 | DRSC21563 | 169 | 139 | – | – | inactive |
| mRpL20 | DRSC09828 | 55 | 120 | – | – | active |
